Reference: PubChem BioAssay (EPA / NIEHS)
Inconclusive means that the source gave no clear call. Such entries were picked first, then a sample of the others. A potency beside an inconclusive call is a rough fit, not a confirmed value. Active and inactive are the calls of the source. How the source made its calls: active means hit-call score of the fitted dose curve at least 0.9, where 1 is the maximum; inconclusive means response in the unintended direction; inactive means score below 0.9.

Read-out: sulfotransferase (SULT2A), SULT2A1 (gene 6822)
Assay: CLD_SULT2A_24hr: CellzDirect (CLD) Gene Expression Assay for sulfotransferase (SULT2A) at 24 hours (AID 2283694);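 on AC50: potency for increased SULT2A1 mRNA level as induction over DMSO baseline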
Protocol: CLD_24hr is a cell-based, multiplexed-readout assay that uses hepatocyte, a human liver primary cell, with measurements taken at 24 hours after chemical dosing in a 96-well plate.CLD_SULT2A_24hr is one of 16 assay component(s) measured or calculated from the CLD_24hr assay. It is designed to make measurements of mRNA induction, a form of inducible reporter, as detected with chemiluminescence signals by Quantitative Nuclease Protection Assay (qNPA) technology.Data from the assay component CLD_SULT2A_24hr was analyzed at the endpoint, CLD_SULT2A_24hr, in the positive analysis fitting direction relative to DMSO as the negative control and baseline of activity. Using a type of inducible reporter, gain-of-signal activity can be used to understand changes in the reporter gene as they relate to the gene SULT2A1. Furthermore, this assay endpoint can be referred to as a primary readout. To generalize the intended target to other relatable targets, this assay endpoint is annotated to the transferase intended target family, where subfamily is sulfotransferase.
Human hepatocyte cultures were treated daily for two consecutive days with fresh dosing solutions containing appropriate concentrations of the 320 ToxCast chemicals (chemical identities were blinded to CellzDirect and other ToxCast collaborators), vehicle control (0.2% DMSO), and positive control inducers as summarized in Table 1. Due to the large number of treatment groups and chemicals examined, the ToxCast chemicals were divided into two groups (spanning two independent cultures of hepatocytes from separate donor preparations (Hu778: ToxCast plates 1 and 2; Hu776: ToxCast plates 3 and 4). Each preparation of human hepatocyte cultures was treated with respective vehicle control, medium only control, set of six positive controls/reference chemicals for the five hepatic receptor pathways, and a subset of eight of the ToxCast chemicals (indoxacarb, pyrithiobac-sodium, norflurazon, cyhalofop-butyl, methomyl, thiram, acetochlor, and propiconazole). These replicate data, coupled with internal replicates designed within the blinded ToxCast chemical library, provided additional data to evaluate interindividual differences between hepatocyte preparations and their potential impact on chemical profiles.Cell morphology and integrity were evaluated using phase-contrast microscopy as an indicator of hepatocyte cell health (Tyson & Green, 1987). Cultures for each treatment group (i.e., media, vehicle [0.2% DMSO], positive control inducers [multiple concentrations], and the ToxCast chemicals [multiple concentrations]) were observed and cell morphology was assessed relative to vehicle control cultures at each harvest time point (0, 6, 24, or 48 h). […] Images were evaluated at the conclusion of the study to assess changes in cell integrity and account for the effects of chemical exposure on uncharacteristic changes in concentration-dependent gene expression profiles. The results from these determinations of apparent cytotoxicity were annotated (yes/no) alongside the corresponding qNPA data for reference.At the conclusion of each treatment period, hepatocyte cultures (96-well) were washed with 1 volume of HBSS, lysed by addition of 25 ul ArrayPlate lysis buffer (HTG, Tucson, AZ), and 70 ul/well of Denaturation Oil, denatured by incubation at 95C for 10 min, and frozen at approximately -70C until analysis by nuclease protection assay (qNPA) (Roberts et al., 2007). For qNPA analysis, cell lysates were thawed at 50C for approximately 30 min, qNPA probes were added, and samples were incubated at 95C for 10 min to begin the detection process by denaturing the target RNA, dissociating the duplexes and secondary structure hybridization. At the conclusion of the hybridization period, S1 nuclease reagent was added to each sample to digest all nonprotected nucleotides at 50C for 60-90 min. […]

| SMILES | AC50 | outcome |
| --- | --- | --- |
| CNC(=O)Oc1cccc2c1OC(C)(C)O2 | inconclusive: 1.88 µM |  |
| Cc1c(COC(=O)[C@@H]2[C@H](/C=C(\Cl)C(F)(F)F)C2(C)C)cccc1-c1ccccc1 | inconclusive: 0.00355 µM |  |
| Clc1nc(Cl)nc(Nc2ccccc2Cl)n1 | inconclusive: 0.0187 µM |  |
| CN=C=S |  | inactive |
| Oc1ccc(Cl)cc1Cc1ccccc1 | inconclusive: 20 µM |  |
| O=C(Nc1ccccc1-c1ccc(Cl)cc1)c1cccnc1Cl |  | inactive |
| CCOc1nc(NC)nc(NC(=O)NS(=O)(=O)c2ccccc2C(=O)OC)n1 | inconclusive: 20 µM |  |
| CN(C)NC(=O)CCC(=O)O | inconclusive: 0.33 µM |  |
| CC(C)N1C(=O)c2ccccc2NS1(=O)=O | inconclusive: 20 µM |  |
| COc1nc(C)nc(NC(=O)NS(=O)(=O)c2ccccc2CCC(F)(F)F)n1 | inconclusive: 20 µM | inactive |
| Cc1[nH]c(=O)n(C(C)(C)C)c(=O)c1Cl | inconclusive: 20 µM |  |
| CN1CSC(=S)N(C)C1 | inconclusive: 4.3 µM |  |
| COC(=O)c1c(C(F)F)nc(C(F)(F)F)c(C2=NCCS2)c1CC(C)C | active: 20 µM |  |
| CC1(C)C(C=C(Cl)Cl)C1C(=O)OC(C#N)c1ccc(F)c(Oc2ccccc2)c1 (stereo not given) | inconclusive: 20 µM |  |
| CC(C)N(C(=O)COc1nnc(C(F)(F)F)s1)c1ccc(F)cc1 |  | inactive |
| CNC(=O)Oc1ccccc1OC(C)C | inconclusive: 0.0004 µM |  |
| COc1ccc(C(c2ccc(OC)cc2)C(Cl)(Cl)Cl)cc1 |  | inactive |
| COP(=O)(OC)OC(Br)C(Cl)(Cl)Br (stereo not given) | inconclusive: 3.97 µM |  |
| CCOC(=O)C(C)OC(=O)c1cc(Oc2ccc(C(F)(F)F)cc2Cl)ccc1[N+](=O)[O-] (stereo not given) | active: 3.51 µM |  |
| N#Cc1nn(-c2c(Cl)cc(C(F)(F)F)cc2Cl)c(N)c1S(=O)C(F)(F)F (stereo not given) | active: 2.43 µM |  |

| SMILES | AC50 | outcome |
| --- | --- | --- |
| C=CCOC(=O)C(C)(C)OC(=O)c1cc(-n2c(=O)cc(C(F)(F)F)n(C)c2=O)ccc1Cl | inconclusive: 35.9 µM |  |
| OCCOc1ccccc1 | inconclusive: 0.0188 µM |  |
| Clc1ccccc1-c1nnc(-c2ccccc2Cl)nn1 | active: 0.852 µM |  |
| Cc1ccn2nc(S(=O)(=O)Nc3c(F)cccc3F)nc2n1 |  | inactive |
| CCOc1nc(F)cc2nc(S(=O)(=O)Nc3c(Cl)cccc3Cl)nn12 | active: 5.51 µM |  |
| CCOP(=S)(Oc1cnc(C(C)(C)C)nc1)OC(C)C (stereo not given) |  | inactive |
| Cn1c(-c2ccccc2)cc(-c2ccccc2)[n+]1C | active: 8.08 µM |  |
| C#CCOS(=O)OC1CCCCC1Oc1ccc(C(C)(C)C)cc1 (stereo not given) |  | inactive |
| CCN(CC)C(=O)SCc1ccc(Cl)cc1 | inconclusive: 1.89 µM |  |
| COC(=O)c1ccccc1CS(=O)(=O)NC(=O)Nc1nc(OC)cc(OC)n1 | inconclusive: 20 µM |  |
| CON(C)C(=O)Nc1ccc(Cl)c(Cl)c1 | inconclusive: 20 µM |  |
| COc1ccc(-c2ccccc2)cc1NNC(=O)OC(C)C | active: 33.5 µM |  |
| CCC(CC)Nc1c([N+](=O)[O-])cc(C)c(C)c1[N+](=O)[O-] |  | inactive |
| O=[N+]([O-])c1c(Cl)c(Cl)c(Cl)c(Cl)c1Cl | inconclusive: 20 µM |  |
| CCC(C)(C)C(=O)OC1=C(c2ccc(Cl)cc2Cl)C(=O)OC12CCCCC2 | inconclusive: 20 µM |  |
| CNC(=O)ON=C(SC)C(=O)N(C)C | inconclusive: 20 µM |  |
| CCCCNC(=O)OCC#CI | inconclusive: 20 µM |  |
| O=S1OCC2C(CO1)C1(Cl)C(Cl)=C(Cl)C2(Cl)C1(Cl)Cl (stereo not given) | inconclusive: 0.0129 µM |  |
| C=CCC1=C(C)C(OC(=O)C2C(C=C(C)C)C2(C)C)CC1=O (stereo not given) | inconclusive: 0.0004 µM |  |

An excerpt of these results, bar-delimited:
SMILES | AC50 | outcome
CON(C)C(=O)Nc1ccc(Cl)c(Cl)c1 | inconclusive: 20 µM | 
COc1ccc(-c2ccccc2)cc1NNC(=O)OC(C)C | active: 33.5 µM | 
